Record: PubChem BioAssay AID504764 (Drosophila RNAi Screening Center, 2011)
In all, the deposit lists about 22,000 reagents; below is a random part of those with a known target gene and a result. In the full data, 403 (1.9%) got an active call. 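Unnormalised raw counts per well; ratio z-scores behind the hit calls and whether each hit raises or lowers signal are not deposited.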 Not given: the amount of reagent.

- Purpose: 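Knock-downs that raise or lower a Notch target reporter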 (primary screen)
- Cell system: Drosophila Kc167 cells
- Reagent: long dsRNA against Drosophila genes
- Duration: about 5 days (4 days dsRNA, then 24 h after transfection)
- Treatment: transfection of constitutively active membrane-tethered Notch lacking the extracellular domain, read 24 h later
- Detection: 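Firefly luciferase from an E(spl)m3 reporter with active Notch, plus control-promoter and uninduced reporter wells for normalisation; unnormalised counts, duplicate wells a and b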
- Reading the numbers: induced reporter light, run 1, well a and induced reporter light, run 1, well b: higher = more light from the Notch target reporter with active Notch; control promoter light, run 1, well a and control promoter light, run 1, well b: higher = more light from the viral control promoter (cell number, transfection, viability); uninduced reporter light, run 1, well a: higher = more light from the Notch target reporter without active Notch
- Active means: 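Hit if the duplicate-averaged log2 ratio of induced to control-promoter light gives a plate-wise z beyond ±2, or induced to uninduced beyond ±1.8; weak-control or discordant-duplicate wells dropped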
- Calls: active = modifier hit (raised or lowered Notch signal); inactive = not a hit

CG1971 [DRSC15406] | induced reporter light, run 1, well a = 1.37e5; induced reporter light, run 1, well b = 1.98e5; control promoter light, run 1, well a = 2.30e5; control promoter light, run 1, well b = 2.20e5; uninduced reporter light, run 1, well a = 13920; outcome = inactive
CG10747 [DRSC02104] | induced reporter light, run 1, well a = 45940; induced reporter light, run 1, well b = 44830; control promoter light, run 1, well a = 42955; control promoter light, run 1, well b = 53245; uninduced reporter light, run 1, well a = 3128; outcome = inactive
CG5986 [DRSC15931] | induced reporter light, run 1, well a = 1.42e5; induced reporter light, run 1, well b = 1.57e5; control promoter light, run 1, well a = 2.18e5; control promoter light, run 1, well b = 2.23e5; uninduced reporter light, run 1, well a = 13240; outcome = inactive
MFS15 [DRSC06523] | induced reporter light, run 1, well a = 35945; induced reporter light, run 1, well b = 31525; control promoter light, run 1, well a = 34020; control promoter light, run 1, well b = 44460; uninduced reporter light, run 1, well a = 3810; outcome = inactive
CG30065 [DRSC05420] | induced reporter light, run 1, well a = 1.79e5; induced reporter light, run 1, well b = 2.01e5; control promoter light, run 1, well a = 2.77e5; control promoter light, run 1, well b = 2.42e5; uninduced reporter light, run 1, well a = 18295; outcome = inactive
c12.2 [DRSC18751] | induced reporter light, run 1, well a = 1.07e5; induced reporter light, run 1, well b = 1.06e5; control promoter light, run 1, well a = 1.70e5; control promoter light, run 1, well b = 1.72e5; uninduced reporter light, run 1, well a = 7615; outcome = inactive
bys [DRSC18748] | induced reporter light, run 1, well a = 1.58e5; induced reporter light, run 1, well b = 1.39e5; control promoter light, run 1, well a = 1.94e5; control promoter light, run 1, well b = 1.68e5; uninduced reporter light, run 1, well a = 9645; outcome = inactive
MED25 [DRSC14483] | induced reporter light, run 1, well a = 5475; induced reporter light, run 1, well b = 5080; control promoter light, run 1, well a = 6315; control promoter light, run 1, well b = 6945; uninduced reporter light, run 1, well a = 2450; outcome = inactive
CG15040 [DRSC19616] | induced reporter light, run 1, well a = 1.76e5; induced reporter light, run 1, well b = 1.50e5; control promoter light, run 1, well a = 2.51e5; control promoter light, run 1, well b = 2.98e5; uninduced reporter light, run 1, well a = 12750; outcome = inactive
CG6933 [DRSC10751] | induced reporter light, run 1, well a = 1.21e5; induced reporter light, run 1, well b = 1.32e5; control promoter light, run 1, well a = 54585; control promoter light, run 1, well b = 86145; uninduced reporter light, run 1, well a = 9055; outcome = inactive
sac [DRSC12237] | induced reporter light, run 1, well a = 35330; induced reporter light, run 1, well b = 30505; control promoter light, run 1, well a = 32420; control promoter light, run 1, well b = 30040; uninduced reporter light, run 1, well a = 2780; outcome = inactive
SmydA-2 [DRSC10296] | induced reporter light, run 1, well a = 91645; induced reporter light, run 1, well b = 63970; control promoter light, run 1, well a = 64050; control promoter light, run 1, well b = 62835; uninduced reporter light, run 1, well a = 5270; outcome = inactive

An excerpt of the results above, for reference:
CG5986 [DRSC15931] | induced reporter light, run 1, well a = 1.42e5; induced reporter light, run 1, well b = 1.57e5; control promoter light, run 1, well a = 2.18e5; control promoter light, run 1, well b = 2.23e5; uninduced reporter light, run 1, well a = 13240; outcome = inactive
MFS15 [DRSC06523] | induced reporter light, run 1, well a = 35945; induced reporter light, run 1, well b = 31525; control promoter light, run 1, well a = 34020; control promoter light, run 1, well b = 44460; uninduced reporter light, run 1, well a = 3810; outcome = inactive
